From the supplement of paper PMC4604168 (melanoma cell lines)
This is one part of the list. Many values rest on one well or one pass, so single values are uncertain.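 Cells were imaged in 1,536-well plates, and nuclei stained with an antibody against cleaved PARP were counted against all DNA-stained nuclei to give the apoptosis fraction. Screening doses were chosen to leave most cells alive, and resting and induced cleaved-PARP levels differ strongly between cell lines.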

What follows are molecules tested on WM115 (assay: cleaved PARP positive nuclei fraction relative to DMSO control; melanoma cells; higher = more apoptosis). Conditions: library dose: low library concentration; 72 h.

SMILES	cleaved PARP positive nuclei fraction
CS(=O)(=O)CCNCc1ccc(-c2ccc3ncnc(Nc4ccc(OCc5cccc(F)c5)c(Cl)c4)c3c2)o1 [lapatinib] + C[As](C)SC[C@H](NC(=O)CC[C@H](N)C(=O)O)C(=O)NCC(=O)O [Darinaparsin] (first compound 0.8 µM, partner dose 0.4 µM)	168%
C[C@]1(c2nc3c(C(N)=O)cccc3[nH]2)CCCN1 [Veliparib] + Cc1cc(SCc2sc(-c3ccc(C(F)(F)F)c(F)c3)nc2C)ccc1OCC(=O)O [GW0742] (first compound 1.4 µM, partner dose 2 µM)	75%
CN1CCN(c2ccc3nc(-c4c(N)c5c(F)cccc5[nH]c4=O)[nH]c3c2)CC1 [Dovitinib] + O=C(Oc1ccc([N+](=O)[O-])cc1)N1CCC(C(O)(c2ccc3c(c2)OCO3)c2ccc3c(c2)OCO3)CC1 [JZL184] (first compound 0.1 µM, partner dose 1 µM)	120%
COC(=O)c1sccc1S(=O)(=O)Nc1ccc(Nc2ccccc2)cc1OC + C/C(O)=C(\C#N)C(=O)Nc1cc(Br)ccc1Br [LFM-A13] (first compound 1 µM, partner dose 2 µM)	127%
Cc1cc(Nc2cc(N3CCN(C)CC3)nc(Sc3ccc(NC(=O)C4CC4)cc3)n2)n[nH]1 [Tozasertib] + O=C(Oc1ccc([N+](=O)[O-])cc1)N1CCC(C(O)(c2ccc3c(c2)OCO3)c2ccc3c(c2)OCO3)CC1 [JZL184] (first compound 0.006 µM, partner dose 1 µM)	179%
CCN(CC)CCCCNc1ncc2cc(-c3cc(OC)cc(OC)c3)c(NC(=O)NC(C)(C)C)nc2n1 + O=C(Oc1ccc([N+](=O)[O-])cc1)N1CCC(C(O)(c2ccc3c(c2)OCO3)c2ccc3c(c2)OCO3)CC1 [JZL184] (first compound 0.1 µM, partner dose 1 µM)	85.5%
N.N.[Cl][Pt][Cl] [cisplatin] + CC(=O)c1c(C)c2cnc(Nc3ccc(N4CCNCC4)cn3)nc2n(C2CCCC2)c1=O [palbociclib] (first compound 1.6 µM, partner dose 0.04 µM)	98.7%
C[C@]12O[C@H](C[C@]1(O)CO)n1c3ccccc3c3c4c(c5c6ccccc6n2c5c31)CNC4=O [Lestaurtinib] + C#Cc1cccc(Nc2ncnc3cc(OCCOC)c(OCCOC)cc23)c1 [erlotinib] (first compound 0.004 µM, partner dose 0.8 µM)	78.8%
Cn1cc(C2=C(c3cn(C4CCN(Cc5ccccn5)CC4)c4ccccc34)C(=O)NC2=O)c2ccccc21 [Enzastaurin] + CNC(=O)c1cc(Oc2ccc(NC(=O)Nc3ccc(Cl)c(C(F)(F)F)c3)cc2)ccn1 [sorafenib] (first compound 0.8 µM, partner dose 0.4 µM)	54.8%
OCc1c[nH]c2ccccc12 [Indole-3-carbinol] + C[As](C)SC[C@H](NC(=O)CC[C@H](N)C(=O)O)C(=O)NCC(=O)O [Darinaparsin] (first compound 0.8 µM, partner dose 0.4 µM)	60.8%
C[C@]12O[C@H](C[C@]1(O)CO)n1c3ccccc3c3c4c(c5c6ccccc6n2c5c31)CNC4=O [Lestaurtinib] + CS(=O)(=O)CCNCc1ccc(-c2ccc3ncnc(Nc4ccc(OCc5cccc(F)c5)c(Cl)c4)c3c2)o1 [lapatinib] (first compound 0.004 µM, partner dose 0.8 µM)	138%
C/C(O)=C(\C#N)C(=O)Nc1cc(Br)ccc1Br + O=C(Oc1ccc([N+](=O)[O-])cc1)N1CCC(C(O)(c2ccc3c(c2)OCO3)c2ccc3c(c2)OCO3)CC1 [JZL184] (first compound 2 µM, partner dose 1 µM)	42.2%
C[As](C)SC[C@H](NC(=O)CC[C@H](N)C(=O)O)C(=O)NCC(=O)O [Darinaparsin] + Cc1cc(N2CCOCC2)cc2[nH]c(-c3c(NC[C@@H](O)c4cccc(Cl)c4)cc[nH]c3=O)nc12 [BMS536924] (first compound 0.4 µM, partner dose 0.2 µM)	138%
N.N.[Cl][Pt][Cl] [cisplatin] + Clc1ccc(Nc2nnc(Cc3ccncc3)c3ccccc23)cc1 [vatalanib] (first compound 1.6 µM, partner dose 2 µM)	68.8%
C/C(O)=C(\C#N)C(=O)Nc1cc(Br)ccc1Br + O=C1NC(=O)/C(=C/c2ccc(-c3ccc(F)cc3O)o2)S1 [AS252424] (first compound 2 µM, partner dose 1 µM)	41.8%
Cn1cc(C2=C(c3cn(C4CCN(Cc5ccccn5)CC4)c4ccccc34)C(=O)NC2=O)c2ccccc21 [Enzastaurin] + COc1cc2ncnc(Nc3ccc(Oc4ccccc4)cc3)c2cc1OC [SrcI1] (first compound 0.8 µM, partner dose 2 µM)	94.1%
C[C@]1(c2nc3c(C(N)=O)cccc3[nH]2)CCCN1 [Veliparib] + C/C(O)=C(\C#N)C(=O)Nc1cc(Br)ccc1Br [LFM-A13] (first compound 1.4 µM, partner dose 2 µM)	116%
N.N.[Cl][Pt][Cl] [cisplatin] + COc1cc(Nc2ncc(F)c(Nc3ccc4c(n3)NC(=O)C(C)(C)O4)n2)cc(OC)c1OC [Tamatinib] (first compound 1.6 µM, partner dose 0.4 µM)	143%
N.N.[Cl][Pt][Cl] [cisplatin] + Nc1ncn([C@H]2C[C@H](O)[C@@H](CO)O2)c(=O)n1 [decitabine] (first compound 1.6 µM, partner dose 0.1 µM)	205%
CNC(=O)c1cc(Oc2ccc(NC(=O)Nc3ccc(Cl)c(C(F)(F)F)c3)cc2)ccn1 [sorafenib] + C[As](C)SC[C@H](NC(=O)CC[C@H](N)C(=O)O)C(=O)NCC(=O)O [Darinaparsin] (first compound 0.4 µM, partner dose 0.4 µM)	108%

Taken from above (2 entries):
SMILES	cleaved PARP positive nuclei fraction
Cc1cc(Nc2cc(N3CCN(C)CC3)nc(Sc3ccc(NC(=O)C4CC4)cc3)n2)n[nH]1 [Tozasertib] + O=C(Oc1ccc([N+](=O)[O-])cc1)N1CCC(C(O)(c2ccc3c(c2)OCO3)c2ccc3c(c2)OCO3)CC1 [JZL184] (first compound 0.006 µM, partner dose 1 µM)	179%
CCN(CC)CCCCNc1ncc2cc(-c3cc(OC)cc(OC)c3)c(NC(=O)NC(C)(C)C)nc2n1 + O=C(Oc1ccc([N+](=O)[O-])cc1)N1CCC(C(O)(c2ccc3c(c2)OCO3)c2ccc3c(c2)OCO3)CC1 [JZL184] (first compound 0.1 µM, partner dose 1 µM)	85.5%
